Measured values published in PubChem BioAssay AID652054 (National Center for Advancing Translational Sciences (NCATS), 2013).
The whole screen tested about 360,000 compounds, of which about 9,100 (2.5%) were called active. Inconclusive means that the source gave no clear call. Such entries were picked first, then a sample of the others. Cut-off read from the data, not from the text of the source: active = max response below about -50%; inconclusive = no clear call, values can overlap the other calls; inactive = above that.

Chains of the proteins cited; added tags and fusions are not shown.
UniProt P35462, whole entry, looked up: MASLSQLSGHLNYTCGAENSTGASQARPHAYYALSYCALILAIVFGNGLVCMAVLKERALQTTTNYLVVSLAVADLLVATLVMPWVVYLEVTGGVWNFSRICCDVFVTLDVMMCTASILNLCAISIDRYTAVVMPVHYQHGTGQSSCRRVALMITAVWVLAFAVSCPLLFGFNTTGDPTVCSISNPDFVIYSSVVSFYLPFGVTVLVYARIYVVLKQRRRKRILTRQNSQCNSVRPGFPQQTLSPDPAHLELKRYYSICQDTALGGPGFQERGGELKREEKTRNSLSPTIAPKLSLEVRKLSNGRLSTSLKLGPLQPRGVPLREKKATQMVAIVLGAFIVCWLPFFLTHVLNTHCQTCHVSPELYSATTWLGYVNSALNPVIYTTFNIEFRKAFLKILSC

molecular target: D(3) dopamine receptor (Homo sapiens) (UniProt P35462); assay: qHTS of D3 Dopamine Receptor Antagonist: qHTS; details: D3R cells, DiscoveRx beta-arrestin luminescence, antagonist mode; stronger effect = lower value
How it was run: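 Cells expressing the human receptor were seeded at 1500 cells/well, incubated overnight at 37 degrees C in 5% CO2, then exposed to library compounds with dopamine controls for 90 minutes at 37 degrees C before luminescent detection.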
% is set by controls: 0 for no effect and ±100 for the full control effect.

SMILES	max response, negative = inhibition
CCc1cc(C(=O)NCC(c2ccco2)N2CCCCC2)sc1C (configuration not stated)	active: -59.4%
CC1(C(=O)NS(=O)(=O)c2cccs2)CCN1C(=O)Cc1ccc(-c2ccccc2)cc1 (configuration not stated)	inactive: 15.7%
CN(CC(=O)NCc1ccccc1)Cc1cccc(F)c1	inconclusive: -33%
COc1ccccc1-c1nc(C#N)c(N2CCN(c3ccccc3)CC2)o1	inconclusive: -37.1%
CCCN=Cc1ccc(O)cc1	inactive: 2.52%
CCOc1ccc2nc(NS(=O)(=O)Cc3ccccc3)sc2c1	inconclusive: -33.4%
CCN(CC)S(=O)(=O)c1ccc(NC(=O)c2ccc(Cl)nc2)cc1	inactive: -19.7%
Cn1ccc2c(-c3ccc(CO)cc3)cc3c(c21)C1CCC3C1 (configuration not stated)	active: -64.9%
FC(F)(F)c1nc2ccccc2n2c(-c3c(Cl)cccc3Cl)nnc12	inconclusive: -40.1%
Oc1ccc(N=Nc2ccccc2)o1	inconclusive: -49.4%
COc1cccc(OCC(O)CN2CCN(C)CC2)c1 (configuration not stated)	inconclusive: -35.6%
COc1cc(-c2cc(C(=O)OCC(=O)NC3CC3)c3ccccc3n2)cc(OC)c1OC	inactive: 58.4%
O=C1C(Cl)=C(NC(=O)c2ccccc2)C(=O)C(Cl)=C1NC(=O)c1ccccc1	active: -71.4%
COc1ccc(COCC(O)CN2CCc3ccccc3C2)cc1OC (configuration not stated)	active: -60.6%
O=C(Nc1ccc(Br)cc1)c1cccc(S(=O)(=O)Nc2ccccn2)c1	inactive: -16.1%
COc1ccc(NC(=O)NNC(=O)COc2ccc(Cl)cc2C)cc1OC	inactive: -11.9%
Oc1c(Cl)cc(Cl)cc1/C=N/NC(=S)NC1CC2C=CC1C2 (configuration not stated)	active: -85.4%
COc1ccccc1Nc1nc(C)cs1	inconclusive: -33.7%
COCCN(C(=O)c1cc(-c2ccc(F)cc2)nc2ccccc12)c1c(N)n(CC(C)C)c(=O)[nH]c1=O	inactive: -7.14%

Single entries from above:
O=C(Nc1ccc(Br)cc1)c1cccc(S(=O)(=O)Nc2ccccn2)c1 | max response, negative = inhibition: inactive: -16.1%
CN(CC(=O)NCc1ccccc1)Cc1cccc(F)c1 | max response, negative = inhibition: inconclusive: -33%

Sorted by heavy-atom count (rising): some entries from above.
SMILES	max response, negative = inhibition
COc1ccccc1-c1nc(C#N)c(N2CCN(c3ccccc3)CC2)o1	inconclusive: -37.1%
CC1(C(=O)NS(=O)(=O)c2cccs2)CCN1C(=O)Cc1ccc(-c2ccccc2)cc1 (configuration not stated)	inactive: 15.7%
COCCN(C(=O)c1cc(-c2ccc(F)cc2)nc2ccccc12)c1c(N)n(CC(C)C)c(=O)[nH]c1=O	inactive: -7.14%

Remaining list, next part:

SMILES	max response, negative = inhibition
COc1ccc(OCC(O)CN2CCc3ccccc3C2)cc1 (configuration not stated)	active: -107%
Cc1cccc(NC(=O)[C@H](NC(=O)[C@@H]2Cc3ccccc3CN2)c2ccccc2)c1	active: -88.9%
Cc1ccc(OCC(=O)Nc2cc(C(=O)O)cc(C(=O)O)c2)cc1C	inactive: 0.668%
CC(C)C[C@H]1CN([C@@H](Cc2ccccc2)CN2CCC[C@H]2CN2C(=O)C(=O)NC[C@@H]2Cc2ccc(O)cc2)C(=O)C(=O)N1CCc1ccccc1	inconclusive: -44.6%
O=C(Nc1ccc(F)cc1)c1nc(S(=O)(=O)Cc2ccccc2)ncc1Cl	active: -110%
Cc1cccc(Cn2c(=O)n(CCCC(=O)NCc3ccco3)c(=O)c3ccccc32)c1	inactive: -2.56%
Cc1ccc(/C=C2/NC(=O)N(Cc3ccccc3)C2=O)s1	inactive: 7.28%
CCOC(=O)c1c(-c2ccc(C)o2)csc1NC(=O)CN1CCN(CC)CC1	active: -106%
Cc1ccc(C(=O)NCCN2CCC(n3c(=O)[nH]c4ccccc43)CC2)cc1C	active: -111%
COC(=O)[C@H](CC(C)C)NC(=O)NC1CCCCC1C (some centres not stated)	inconclusive: -38.3%
CCOc1ccc(N=C2NC(=O)S/C2=C\c2ccc(N(C)C)cc2)cc1	active: -69.3%
COc1ccc(OC)c(CNc2nc3ccccc3n2CCN2CCCCC2)c1	inconclusive: -47.6%
COc1ccc(Nc2nc(-c3cccs3)cs2)c(OC)c1	active: -50.6%
O=C1CCC(C(=O)OCc2cc(Cl)ccc2OC(F)F)N1 (configuration not stated)	inconclusive: -31.3%
Nc1[nH][nH]c(=O)c1N=Nc1ccccc1	inconclusive: -33.1%
CCN(CC)CCCN(Cc1cc2cc(OC)ccc2[nH]c1=O)C(=O)Nc1ccc(F)cc1	inconclusive: -42%
COc1ccccc1NC(CC(=O)c1ccccc1)C(=O)OCC(=O)c1ccc(Br)cc1 (configuration not stated)	inactive: 10.1%
Cc1cc(C)c(C(=O)COC(=O)[C@H](C)Nc2ccc(C(F)(F)F)cc2[N+](=O)[O-])c(C)c1	inconclusive: -39.2%
COc1ccc(NC(=O)CN2CCN(CC(=O)Nc3ccccc3Cl)CC2)c(OC)c1	inactive: 26.6%

SMILES	max response, negative = inhibition
O=C(NCc1ccc(-c2csnn2)cc1)c1cc(Cl)cc(Cl)c1	inactive: 0%
COc1ccc([C@H]2CC(=O)C=C(c3cc(C)ccc3OC)C2)cc1	active: -58.3%
Cc1cccc(/C=N/c2sc3c(c2C#N)CCN(Cc2ccccc2)C3)c1O	inconclusive: -37.3%
CCN1CCCC1CNCc1ccc(Cl)cc1Cl (configuration not stated)	inconclusive: -44.4%
O=C(NN=C1CCCC1)c1[nH]c2ccc(Br)cc2c1-c1ccccc1	inconclusive: -42.2%
CC(=O)c1nc2ccccc2n1S(=O)(=O)c1ccc(Cl)cc1	inactive: -6.63%
Cc1cc2oc(=O)cc(CN3CCCCC3)c2cc1C(C)C	active: -78%
COc1ccc(CNC(=O)c2[nH]c(C(F)(F)F)nc2-c2ccccc2)cc1OC	active: -57.6%
CC1(OC(=O)C2CCCC2)C(=O)C=C2C=C(c3ccsc3)N(C3CC3)C=C2C1=O (configuration not stated)	active: -63.7%
O=S(=O)(NC1CCN(Cc2ccccc2)CC1)c1cccc(S(=O)(=O)N2CCOCC2)c1	inconclusive: -48.6%
COc1ccc(NC(=O)c2cc(-c3cc(Cl)ccc3C)n[nH]2)cn1	inconclusive: -44%
OC(c1ccc(CN2CCCCC2)cc1)c1ncc(-c2ccccc2)[nH]1 (configuration not stated)	active: -107%
CS(=O)(=O)Nc1ccccc1C(=O)NCCSc1ccccc1	inconclusive: -44.8%
CCc1c(C)nc(SCC(=O)NNC(=O)c2ccco2)[nH]c1=O	inconclusive: -36.9%
CCOC(=O)C1=C(C)N=c2sc(=Cc3cc(Cl)c(OCC(=O)O)c(OC)c3)c(=O)n2C1c1ccccc1Cl (configuration not stated)	inconclusive: -30.9%
CC(C)N(CCn1c(=S)[nH]c2ccccc2c1=O)C(C)C	inconclusive: -47.6%
CCCCN(CC)C(=O)CSc1nc2n[nH]c(C)c2c(=N)n1-c1cccc(C)c1	inactive: -4.96%
Cc1ccc(S(=O)(=O)N2CCC(C(=O)Nc3ccccc3N3CCCCC3)CC2)cc1	inconclusive: -46.9%
CCc1n[nH]c2c1/C(=N\O)CC(C)(C)C2	inconclusive: -39.6%
